Assay results: patent publication US20260284208A1, “SYSTEM” (Oxford University Innovation Limited, priority 2023, published 2026)
The source gives many values for each of these; only a part stands here.

Test system: library of 8,380 IKZF3 degrons (ZF-eGFP/mCherry reporter) in Jurkat cells
Test: Pooled library screen (FACS, NGS, limma voom LogFC of positive vs negative read counts)
Type: cell-based, human
Description: A library of 8,380 IKZF3 degrons was cloned into pLVX-Sprout to create the eGFP/mCherry protein degradation reporter plasmid pool. A lentivirus pool was then generated using the Lenti-X lentiviral vector production method.
Jurkat cells were transduced at a multiplicity of infection of <0.3 with the lentivirus vector library in order to maximise the number of cells with a single integration. Transductions were carried out in 6 well TC-treated cell culture dishes (Falcon) with 3×10^6 cells per well. Cells were incubated for 2 days at 37° C. and 5% CO2 before the supernatant was removed and replaced with fresh media. 6 days post-transduction, mCherry+ cells were isolated via FACS using the FACS Aria Fusion (BD) in a buffer containing PBS (Gibco), 2 mM EDTA (Gibco), 25 mM HEPES (Sigma) and 1% BSA (Sigma). 8 days later, cells were treated with DMSO or a thalidomide analog for 18 hours at 37° C. and 5% CO2. mCherry+GFPlow and NOT(mCherry+GFPlow) cells were sorted by FACS using the FACS Aria Fusion (BD). DMSO treated cells were used to set the mCherry+GFPlow gate and dead cells were excluded from sorting by staining cells with 1 μg/mL DAPI (ThermoFisher). gDNA was isolated using the Maxwell RSC 48 (Promega). gDNA from cells that were unsorted and untreated were also isolated to determine the library representation on the day of compound treatment. Throughout the screen >600× coverage of the library was maintained. 3 biological replicates were carried out with a new transduction taking place each time.
A two-step PCR was used where the first PCR (PCR1) amplified the integrated degron sequence from gDNA and the second PCR (PCR2) added Illumina adaptors and barcodes to permit multiplexing. See Supp F for PCR1 and PCR2 primers. Q5 Hot Start High-Fidelity 2× Master Mix (New England Biolabs) was used for both PCRs. Sufficient gDNA was amplified in PCR1 in order to maintain >600× coverage and amplicons were purified using solid phase reversible immobilization (SPRI) beads (Beckman Coulter). Purified PCR1 products were analysed on the Tapestation 4200 (Agilent) to confirm purity prior to proceeding to PCR2. Sufficient PCR1 product was amplified in PCR2 in order to maintain >600× coverage and amplicons were run on a 2% agarose TAE gel. Target bands were excised and purified using the NucleoSpin Gel and PCR Clean-up Kit (Machery Nagel). Amplicons were analysed on the Tapestation 4200 and quantified using Qubit dsDNA HS kit (ThermoFisher). PCR products were pooled and sequenced as paired-reads on the NovaSeq (Illumina) using a SP2 200 cycles kit (Illumina).
Count distributions, percentage of read mapping, library coverage and replicate correlation per sample were assessed for QC purposes.
To carry out the library screen, we used the same plasmid construct as in our earlier flow cytometry assays, but pooling all 8,380 mutants together into one Jurkat population, ensuring a copy number of one plasmid per cell (FIG. 4B). […] These GFP-negative cells were then separated from the remaining GFP-positive population using fluorescence activated cell sorting (FACS). These two populations were then sequenced and the relative abundance of every mutant in both populations compared to provide a log FC value for each mutant sequence. This value indicated how frequently a sequence is observed in the GFP-negative population relative to the GFP-positive population, and therefore how effective a degron it is for that particular IMID compound.

SMILES: O=C1CCC(N2C(=O)c3ccc(N4CCOCC4)cc3C2=O)C(=O)N1 (stereo not drawn) [B03]
- B03_logFC (Degron-ID 0, SEQ ID NO 4402, 46F_47A_49D_50I_52G_53A_54A_55F_67L_): 2.037
- B03_logFC (Degron-ID 60, SEQ ID NO 3787, 46F_47A_49E_50I_52G_53A_54A_55F_67L_): 3.03
- B03_logFC (Degron-ID 74, SEQ ID NO 3869, 46F_47A_49E_50I_52G_53A_54R_55F_67L): 2.894
- B03_logFC (Degron-ID 75, SEQ ID NO 3923, 46F_47A_49E_50I_52G_53A_54S_55F_67L): 2.802
- B03_logFC (Degron-ID 76, SEQ ID NO 4395, 46F_47A_49E_50I_52G_53A_54T_55F_67L_): 2.045
- B03_logFC (Degron-ID 100, SEQ ID NO 3808, 46F_47A_49E_50V_52G_53A_54A_55F_67L_): 2.993
- B03_logFC (Degron-ID 101, SEQ ID NO 4325, 46F_47A_49E_50V_52G_53A_54C_55F_67L_): 2.16
- B03_logFC (Degron-ID 108, SEQ ID NO 4421, 46F_47A_49E_50V_52G_53A_54K_55F_67L_): 2.017
- B03_logFC (Degron-ID 113, SEQ ID NO 4388, 46F_47A_49E_50V_52G_53A_54Q_55F_67L_): 2.057
- B03_logFC (Degron-ID 114, SEQ ID NO 3785, 46F_47A_49E_50V_52G_53A_54R_55F_67L_): 3.033
- B03_logFC (Degron-ID 116, SEQ ID NO 4406, 46F_47A_49E_50V_52G_53A_54T_55F_67L_): 2.033
- B03_logFC (Degron-ID 117, SEQ ID NO 4403, 46F_47A_49E_50V_52G_53A_54V_55F_67L_): 2.035
- B03_logFC (Degron-ID 132, SEQ ID NO 4276, 46F_47A_49N_50I_52G_53A_54P_55F_67L_): 2.252
- B03_logFC (Degron-ID 135, SEQ ID NO 4410, 46F_47A_49N_50I_52G_53A_54S_55F_67L_): 2.031
- B03_logFC (Degron-ID 137, SEQ ID NO 4389, 46F_47A_49N_50I_52G_53A_54V_55F_67L_): 2.054
- B03_logFC (Degron-ID 180, SEQ ID NO 3842, 46F_47A_49P_50I_52G_53A_54A_55F_67L_): 2.934
- B03_logFC (Degron-ID 181, SEQ ID NO 4368, 46F_47A_49P_50I_52G_53A_54C_55F_67L_): 2.089
- B03_logFC (Degron-ID 192, SEQ ID NO 3786, 46F_47A_49P_50I_52G_53A_54P_55F_67L_): 3.032
- B03_logFC (Degron-ID 220, SEQ ID NO 3886, 46F_47A_49P_50V_52G_53A_54A_55F_67L): 2.873
- B03_logFC (Degron-ID 234, SEQ ID NO 4260, 46F_47A_49P_50V_52G_53A_54R_55F_67L_): 2.277
- B03_logFC (Degron-ID 235, SEQ ID NO 4335, 46F_47A_49P_50V_52G_53A_54S_55F_67L_): 2.15
- B03_logFC (Degron-ID 240, SEQ ID NO 4323, 46F_47C_49D_50I_52G_53A_54A_55F_67L_): 2.171
- B03_logFC (Degron-ID 252, SEQ ID NO 4304, 46F_47C_49D_50I_52G_53A_54P_55F_67L_): 2.215
- B03_logFC (Degron-ID 254, SEQ ID NO 4293, 46F_47C_49D_50I_52G_53A_54R_55F_67L_): 2.233
- B03_logFC (Degron-ID 300, SEQ ID NO 3764, 46F_47C_49E_50I_52G_53A_54A_55F_67L_): 3.101
- B03_logFC (Degron-ID 301, SEQ ID NO 4383, 46F_47C_49E_50I_52G_53A_54C_55F_67L_): 2.063
- B03_logFC (Degron-ID 305, SEQ ID NO 4365, 46F_47C_49E_50I_52G_53A_54G_55F_67L_): 2.093
- B03_logFC (Degron-ID 312, SEQ ID NO 3814, 46F_47C_49E_50I_52G_53A_54P_55F_67L_): 2.986
- B03_logFC (Degron-ID 314, SEQ ID NO 3798, 46F_47C_49E_50I_52G_53A_54R_55F_67L_): 3.011
- B03_logFC (Degron-ID 316, SEQ ID NO 4277, 46F_47C_49E_50I_52G_53A_54T_55F_67L_): 2.25
- B03_logFC (Degron-ID 340, SEQ ID NO 3829, 46F_47C_49E_50V_52G_53A_54A_55F_67L_): 2.957
- B03_logFC (Degron-ID 341, SEQ ID NO 4265, 46F_47C_49E_50V_52G_53A_54C_55F_67L_): 2.267
- B03_logFC (Degron-ID 352, SEQ ID NO 4369, 46F_47C_49E_50V_52G_53A_54P_55F_67L_): 2.088
- B03_logFC (Degron-ID 353, SEQ ID NO 4294, 46F_47C_49E_50V_52G_53A_54Q_55F_67L_): 2.233
- B03_logFC (Degron-ID 354, SEQ ID NO 3795, 46F_47C_49E_50V_52G_53A_54R_55F_67L_): 3.022
- B03_logFC (Degron-ID 355, SEQ ID NO 3899, 46F_47C_49E_50V_52G_53A_54S_55F_67L): 2.852
- B03_logFC (Degron-ID 356, SEQ ID NO 4354, 46F_47C_49E_50V_52G_53A_54T_55F_67L_): 2.117
- B03_logFC (Degron-ID 420, SEQ ID NO 3905, 46F_47C_49P_50I_52G_53A_54A_55F_67L): 2.843
- B03_logFC (Degron-ID 421, SEQ ID NO 4298, 46F_47C_49P_50I_52G_53A_54C_55F_67L_): 2.225
- B03_logFC (Degron-ID 428, SEQ ID NO 4391, 46F_47C_49P_50I_52G_53A_54K_55F_67L_): 2.051
- B03_logFC (Degron-ID 431, SEQ ID NO 4330, 46F_47C_49P_50I_52G_53A_54N_55F_67L_): 2.156
- B03_logFC (Degron-ID 432, SEQ ID NO 3723, 46F_47C_49P_50I_52G_53A_54P_55F_67L_): 3.163
